Paper PMC4357451

Amino acid sequences for entries named in this document (tags omitted).
UniProt F1LTE0: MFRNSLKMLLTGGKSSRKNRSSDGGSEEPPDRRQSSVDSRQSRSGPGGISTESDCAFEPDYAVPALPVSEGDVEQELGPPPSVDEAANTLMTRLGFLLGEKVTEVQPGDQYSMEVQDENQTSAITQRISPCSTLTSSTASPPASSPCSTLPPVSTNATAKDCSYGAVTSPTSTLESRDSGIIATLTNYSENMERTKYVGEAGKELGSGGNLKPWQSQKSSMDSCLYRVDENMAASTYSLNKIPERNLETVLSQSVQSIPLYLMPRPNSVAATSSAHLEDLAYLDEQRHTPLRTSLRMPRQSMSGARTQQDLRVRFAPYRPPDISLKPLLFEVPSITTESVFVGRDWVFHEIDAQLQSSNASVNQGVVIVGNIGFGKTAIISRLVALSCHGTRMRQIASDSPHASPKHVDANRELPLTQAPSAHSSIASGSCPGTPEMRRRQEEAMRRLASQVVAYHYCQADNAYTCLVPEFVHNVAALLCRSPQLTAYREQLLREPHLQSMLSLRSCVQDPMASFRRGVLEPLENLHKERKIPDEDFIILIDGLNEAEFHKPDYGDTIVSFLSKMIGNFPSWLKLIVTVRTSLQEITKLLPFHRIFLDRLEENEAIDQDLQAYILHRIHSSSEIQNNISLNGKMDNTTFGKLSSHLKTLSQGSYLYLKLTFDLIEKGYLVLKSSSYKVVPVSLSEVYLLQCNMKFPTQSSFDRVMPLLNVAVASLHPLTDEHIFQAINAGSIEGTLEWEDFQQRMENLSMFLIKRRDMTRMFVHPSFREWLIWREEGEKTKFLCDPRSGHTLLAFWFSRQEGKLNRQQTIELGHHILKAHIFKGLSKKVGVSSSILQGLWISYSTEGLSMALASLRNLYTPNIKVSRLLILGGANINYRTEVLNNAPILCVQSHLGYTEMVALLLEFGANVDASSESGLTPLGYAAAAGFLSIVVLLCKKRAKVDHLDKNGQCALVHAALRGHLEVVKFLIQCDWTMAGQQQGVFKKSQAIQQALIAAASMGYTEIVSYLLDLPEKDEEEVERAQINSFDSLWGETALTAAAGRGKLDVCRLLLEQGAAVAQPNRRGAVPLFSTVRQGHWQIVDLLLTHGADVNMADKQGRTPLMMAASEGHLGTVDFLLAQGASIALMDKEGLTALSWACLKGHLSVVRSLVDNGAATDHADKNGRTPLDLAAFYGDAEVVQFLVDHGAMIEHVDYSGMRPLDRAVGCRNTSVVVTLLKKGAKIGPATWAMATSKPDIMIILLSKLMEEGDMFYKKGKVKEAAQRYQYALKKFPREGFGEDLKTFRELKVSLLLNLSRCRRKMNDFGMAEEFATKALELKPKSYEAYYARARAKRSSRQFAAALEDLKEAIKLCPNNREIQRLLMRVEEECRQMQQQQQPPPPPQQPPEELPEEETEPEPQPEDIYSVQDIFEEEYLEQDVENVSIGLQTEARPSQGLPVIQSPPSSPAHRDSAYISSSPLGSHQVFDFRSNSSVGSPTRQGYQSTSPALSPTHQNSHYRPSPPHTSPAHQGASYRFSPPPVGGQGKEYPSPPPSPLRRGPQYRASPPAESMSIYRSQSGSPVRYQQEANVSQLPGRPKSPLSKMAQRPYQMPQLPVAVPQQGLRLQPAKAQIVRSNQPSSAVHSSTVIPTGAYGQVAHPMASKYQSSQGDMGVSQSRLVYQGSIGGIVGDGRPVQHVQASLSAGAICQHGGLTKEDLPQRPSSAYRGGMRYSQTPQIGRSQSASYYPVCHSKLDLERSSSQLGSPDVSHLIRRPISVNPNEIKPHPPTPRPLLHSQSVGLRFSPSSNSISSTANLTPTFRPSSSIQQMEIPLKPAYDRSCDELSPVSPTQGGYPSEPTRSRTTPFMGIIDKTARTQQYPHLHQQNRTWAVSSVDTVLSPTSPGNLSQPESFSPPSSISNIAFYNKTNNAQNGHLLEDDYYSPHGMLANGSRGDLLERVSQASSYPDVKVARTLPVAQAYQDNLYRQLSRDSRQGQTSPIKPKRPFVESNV

T1: GFP-PRICKLE1 (human) (UniProt Q96MT3)
T1 sequence: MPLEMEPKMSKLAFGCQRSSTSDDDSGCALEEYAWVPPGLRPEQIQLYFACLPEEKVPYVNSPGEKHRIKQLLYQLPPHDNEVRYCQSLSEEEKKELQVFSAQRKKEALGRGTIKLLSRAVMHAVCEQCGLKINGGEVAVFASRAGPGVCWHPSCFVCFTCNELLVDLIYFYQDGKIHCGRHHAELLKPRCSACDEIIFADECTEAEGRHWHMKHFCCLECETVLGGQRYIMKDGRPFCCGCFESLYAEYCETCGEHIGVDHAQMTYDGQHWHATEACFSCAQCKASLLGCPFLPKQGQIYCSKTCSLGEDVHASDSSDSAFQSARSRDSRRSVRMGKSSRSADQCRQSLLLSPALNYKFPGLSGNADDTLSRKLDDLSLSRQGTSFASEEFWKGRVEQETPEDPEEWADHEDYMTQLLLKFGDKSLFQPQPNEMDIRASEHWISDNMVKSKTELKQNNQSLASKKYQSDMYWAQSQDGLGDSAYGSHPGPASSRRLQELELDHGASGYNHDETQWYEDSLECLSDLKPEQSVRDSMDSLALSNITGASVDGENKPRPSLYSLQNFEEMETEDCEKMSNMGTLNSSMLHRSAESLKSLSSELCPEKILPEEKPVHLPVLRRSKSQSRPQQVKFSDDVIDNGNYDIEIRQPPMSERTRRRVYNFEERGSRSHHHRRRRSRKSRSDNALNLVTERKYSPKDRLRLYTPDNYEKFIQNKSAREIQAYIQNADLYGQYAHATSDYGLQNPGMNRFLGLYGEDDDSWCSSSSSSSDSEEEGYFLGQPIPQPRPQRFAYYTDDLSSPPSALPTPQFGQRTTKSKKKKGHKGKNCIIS

T2: GFP-PRICKLE2 (human) (UniProt Q7Z3G6)
T2 sequence: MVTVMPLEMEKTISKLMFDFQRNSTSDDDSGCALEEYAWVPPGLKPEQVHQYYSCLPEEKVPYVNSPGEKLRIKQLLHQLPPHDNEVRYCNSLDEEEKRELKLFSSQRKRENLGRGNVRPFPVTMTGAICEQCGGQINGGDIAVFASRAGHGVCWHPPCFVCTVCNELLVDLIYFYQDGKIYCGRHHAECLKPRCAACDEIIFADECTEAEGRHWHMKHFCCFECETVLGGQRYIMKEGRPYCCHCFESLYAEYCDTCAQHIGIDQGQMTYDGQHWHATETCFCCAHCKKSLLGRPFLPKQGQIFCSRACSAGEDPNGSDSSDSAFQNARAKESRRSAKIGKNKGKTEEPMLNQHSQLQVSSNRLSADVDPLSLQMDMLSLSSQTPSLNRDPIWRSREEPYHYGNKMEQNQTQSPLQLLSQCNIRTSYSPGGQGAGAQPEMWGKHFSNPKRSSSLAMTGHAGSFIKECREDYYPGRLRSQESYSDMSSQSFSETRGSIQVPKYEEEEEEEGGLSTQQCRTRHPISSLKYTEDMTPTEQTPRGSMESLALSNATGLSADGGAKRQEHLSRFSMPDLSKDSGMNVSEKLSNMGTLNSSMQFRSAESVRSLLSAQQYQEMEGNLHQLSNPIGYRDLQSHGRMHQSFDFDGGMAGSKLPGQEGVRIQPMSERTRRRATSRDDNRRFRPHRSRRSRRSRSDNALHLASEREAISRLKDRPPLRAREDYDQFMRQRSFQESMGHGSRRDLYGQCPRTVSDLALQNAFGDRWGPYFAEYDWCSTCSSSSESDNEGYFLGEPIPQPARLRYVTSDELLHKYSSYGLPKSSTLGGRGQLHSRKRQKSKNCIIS

B1: Bcr, endogenous in PC12 cells (protein, UniProt F1LXF1 1-1270)
chain: MVDSVGFAEAWRAQFPDSEPPRMELRSVGDIEQELERCKASIRRLEQEVNQERFRMIYLQTLLAKEKKSYDRQRWGFRRAAQPPDGAAEPRASAPRLPPAPADGADPAPVEESEARPDGEGSPSKGRPATARRPAAAAPADRDDRGPPTSVAALRSNFEKIRKGPAQPGSADAEKPFYVNVEFHHERGLVKVNDKEVSDRISSLGSQAMQMERKKSQQSAGQGLGEAPRPHYRGRSSESSCGLDGDYEDAELNPRFLKDNLINANGGNRPPWPPLEYQPYQSIYVGGMMVEGEGKSPLLRSQSTSEQEKRLTWPRRSYSPRSFEDSGGGYTPDCSSNENLTSSEEDFSSGQSSRVSPSPTTYRMFRDKSRSPSQNSQQSFDSSSPPTPQCQKRHRQCQVVVSEATIVGVRKTGQIWPSDGDSTFQGEADSSFGTPPGYGCAADQAEEQRRHQDGLPYIDDSPSSSPHLSSKGRGSPASGALEPTKASELDLEKGLEMRKWVLSGILASEETYLSHLEALLLPMKPLKAAATTSQPVLTSQQIETIFFKVPELYEIHKEFYDGLFPRVQQWSHQQRVGDLFQKLASQLGVYRAFVDNYGVAMETAEKCCQANAQFAEISENLRARSNKDVKDSTTKNSLETLLYKPVDRVTRSTLVLHDLLKHTPSSHPDHSLLQDALRISQNFLSSINEEITPRRQSMTVKKGEHRQLLKDSFMVELVEGARKLRHIFLFTDLLLCTKLKKQSGGKTQQYDCKWYIPLTDLSFQMVDELEALPNIPLVPDEELDALKIKISQIKSDIQREKRANKGSKVMERLRKKLSEQESLLLLMSPSMAFRVHSRNGKSYTFLISSDYERAEWRESIREQQKKCFKSFSLTSVELQMLTNSCVKLQTVHHIPLTINKEDDESPGLYGFLHAIVHSATGFKQSSNLYCTLEVDSFGYFVNKAKTRVYRDTTEPNWNEEFEIELEGSQTLRILCYEKCYNKMKMAKEDGESADKLMGKGQVQLDPQTLQDRDWQRTVIDMNGIEVKLSVKFTSREFSLKRMPSRKQTGVFGVKIAVVTKRERSKVPYIVRQCVEEIERRGMEEVGIYRVSGVATDIQALKAAFDVNNKDVSVMMSEMDVNAIAGTLKLYFRELPEPLFTDEFYPNFAEGIALSDPVAKESCMLNLLLSLPEANLLTFLFLLDHLKRVAEKETVNKMSLHNLATVFGPTLLRPSEKESKLPANPSQPITMTDSWSLEVMSQVQVLLYFLQLEAIPAPDSKRQSILFSTEV

How the values were obtained:
GFP-PRICKLE1 (human) = target: T1, GFP-PRICKLE1 (human); experiment: affinity purification with mass spectrometry; anti-GFP beads on whole-cell lysates of doxycycline-induced, NGF-differentiated PC12 lines expressing GFP, GFP-PRICKLE1 or GFP-PRICKLE2; NET-100 buffer; LC-MS/MS matched to rat sequences
GFP-PRICKLE2 (human) = target: T2, GFP-PRICKLE2 (human); experiment: as above

Row | Molecule | binding (GFP-PRICKLE1 (human)) | binding (GFP-PRICKLE2 (human))
1 | Tanc2, endogenous in PC12 cells (from UniProt F1LTE0 1-1992) | binds | binds
2 | B1 | binds | binds

These are yes or no findings as the source states them, for the method shown. In cells and extracts the contact can be indirect. A yes stands for co-enrichment or nearness to the bait. Other partners may have been found. Where a sequence is shown, tags or fusion partners need not be part of it.
